# Data from patent publication US20100152434A1, “Protein Kinase-binding Nucleosides and Associated Methods” (priority 2007, published 2010).
# Experiments:
# [1] = system: HCT-116
# [2] = system: U251
# [3] = system: SK-MEL-2
# [4] = system: SK-OV-3
# [5] = system: CAKI-1
# [6] = system: NCI-H460
# [7] = system: RXF 393
# [8] = system: COLO 205
# [9] = system: LOX IMVI
# [10] = system: NCI-H23
# [11] = system: HCC-2998
# [12] = system: KM12
# [13] = system: NCI-H322M
# [14] = system: SK-MEL-5
# [15] = system: EKVX
# [16] = system: IGROV1
# [17] = system: RPMI-8226
# [18] = system: SN12C
# [19] = system: M14
# [20] = system: T-47D
# [21] = system: DU-145
# [22] = system: OVCAR-4
# [23] = system: HCT-15
# [24] = system: NCI/ADR-RES
# [25] = system: UACC-62
smiles,measurement,setting,value
"CNC(=O)NC[C@H]1O[C@@H](n2cnc3c(NC(=O)Nc4ccccc4)ncnc32)[C@H](O[Si](C)(C)C(C)(C)C)[C@@H]1CC(=O)N(C)OC [Compound 13, 2′-O-(tert-Butyldimethylsilyl)-3′,5′-dideoxy-3′-[(N-methoxy-N-methylcarboxamido)methyl]-5′-[(N-methylcarbamoyl)amino]-N^6-(N-phenylcarbamoyl)adenosine]",Mean Optical Densities,[1]; Log10 Concentration −4.0,0.230
same,Mean Optical Densities,[1]; Log10 Concentration −5.0,0.437
same,Mean Optical Densities,[1]; Log10 Concentration −6.0,1.057
same,Mean Optical Densities,[1]; Log10 Concentration −7.0,1.070
same,Mean Optical Densities,[1]; Log10 Concentration −8.0,1.098
same,Mean Optical Densities,[2]; Log10 Concentration −4.0,0.492
same,Mean Optical Densities,[2]; Log10 Concentration −5.0,0.619
same,Mean Optical Densities,[2]; Log10 Concentration −6.0,1.177
same,Mean Optical Densities,[2]; Log10 Concentration −7.0,1.293
same,Mean Optical Densities,[2]; Log10 Concentration −8.0,1.255
same,Mean Optical Densities,[3]; Log10 Concentration −4.0,0.361
same,Mean Optical Densities,[3]; Log10 Concentration −5.0,0.594
same,Mean Optical Densities,[3]; Log10 Concentration −6.0,0.699
same,Mean Optical Densities,[3]; Log10 Concentration −7.0,0.669
same,Mean Optical Densities,[3]; Log10 Concentration −8.0,0.675
same,Mean Optical Densities,[4]; Log10 Concentration −4.0,0.648
same,Mean Optical Densities,[4]; Log10 Concentration −5.0,0.905
same,Mean Optical Densities,[4]; Log10 Concentration −6.0,0.984
same,Mean Optical Densities,[4]; Log10 Concentration −7.0,0.995
same,Mean Optical Densities,[4]; Log10 Concentration −8.0,0.989
same,Mean Optical Densities,[5]; Log10 Concentration −4.0,0.864
same,Mean Optical Densities,[5]; Log10 Concentration −5.0,0.897
same,Mean Optical Densities,[5]; Log10 Concentration −6.0,0.964
same,Mean Optical Densities,[5]; Log10 Concentration −7.0,0.949
same,Mean Optical Densities,[5]; Log10 Concentration −8.0,0.993
same,Mean Optical Densities,[6]; Log10 Concentration −4.0,0.669
same,Mean Optical Densities,[6]; Log10 Concentration −5.0,0.966
same,Mean Optical Densities,[6]; Log10 Concentration −6.0,1.674
same,Mean Optical Densities,[6]; Log10 Concentration −7.0,1.726
same,Mean Optical Densities,[6]; Log10 Concentration −8.0,1.776
same,Mean Optical Densities,[7]; Log10 Concentration −4.0,0.448
same,Mean Optical Densities,[7]; Log10 Concentration −5.0,0.942
same,Mean Optical Densities,[7]; Log10 Concentration −6.0,1.182
same,Mean Optical Densities,[7]; Log10 Concentration −7.0,1.194
same,Mean Optical Densities,[7]; Log10 Concentration −8.0,1.209
same,Mean Optical Densities,[8]; Log10 Concentration −4.0,0.251
same,Mean Optical Densities,[8]; Log10 Concentration −5.0,0.685
same,Mean Optical Densities,[8]; Log10 Concentration −6.0,0.968
same,Mean Optical Densities,[8]; Log10 Concentration −7.0,0.992
same,Mean Optical Densities,[8]; Log10 Concentration −8.0,1.027
same,Mean Optical Densities,[9]; Log10 Concentration −4.0,1.146
same,Mean Optical Densities,[9]; Log10 Concentration −5.0,1.324
same,Mean Optical Densities,[9]; Log10 Concentration −6.0,2.415
same,Mean Optical Densities,[9]; Log10 Concentration −7.0,2.473
same,Mean Optical Densities,[9]; Log10 Concentration −8.0,2.486
same,Mean Optical Densities,[10]; Log10 Concentration −4.0,1.077
same,Mean Optical Densities,[10]; Log10 Concentration −5.0,1.382
same,Mean Optical Densities,[10]; Log10 Concentration −6.0,1.693
same,Mean Optical Densities,[10]; Log10 Concentration −7.0,1.736
same,Mean Optical Densities,[10]; Log10 Concentration −8.0,1.771
same,Mean Optical Densities,[11]; Log10 Concentration −4.0,1.447
same,Mean Optical Densities,[11]; Log10 Concentration −5.0,2.005
same,Mean Optical Densities,[11]; Log10 Concentration −6.0,2.593
same,Mean Optical Densities,[11]; Log10 Concentration −7.0,2.536
same,Mean Optical Densities,[11]; Log10 Concentration −8.0,2.630
same,Mean Optical Densities,[12]; Log10 Concentration −4.0,0.513
same,Mean Optical Densities,[12]; Log10 Concentration −5.0,0.743
same,Mean Optical Densities,[12]; Log10 Concentration −6.0,1.063
same,Mean Optical Densities,[12]; Log10 Concentration −7.0,1.079
same,Mean Optical Densities,[12]; Log10 Concentration −8.0,1.023
same,Mean Optical Densities,[13]; Log10 Concentration −4.0,1.571
same,Mean Optical Densities,[13]; Log10 Concentration −5.0,1.789
same,Mean Optical Densities,[13]; Log10 Concentration −6.0,1.933
same,Mean Optical Densities,[13]; Log10 Concentration −7.0,1.886
same,Mean Optical Densities,[13]; Log10 Concentration −8.0,1.869
same,Mean Optical Densities,[14]; Log10 Concentration −4.0,0.674
same,Mean Optical Densities,[14]; Log10 Concentration −5.0,0.973
same,Mean Optical Densities,[14]; Log10 Concentration −6.0,1.522
same,Mean Optical Densities,[14]; Log10 Concentration −7.0,1.622
same,Mean Optical Densities,[14]; Log10 Concentration −8.0,1.690
same,Mean Optical Densities,[15]; Log10 Concentration −4.0,1.627
same,Mean Optical Densities,[15]; Log10 Concentration −5.0,1.993
same,Mean Optical Densities,[15]; Log10 Concentration −6.0,2.536
same,Mean Optical Densities,[15]; Log10 Concentration −7.0,2.536
same,Mean Optical Densities,[15]; Log10 Concentration −8.0,2.516
same,Mean Optical Densities,[16]; Log10 Concentration −4.0,0.389
same,Mean Optical Densities,[16]; Log10 Concentration −5.0,0.604
same,Mean Optical Densities,[16]; Log10 Concentration −6.0,1.031
same,Mean Optical Densities,[16]; Log10 Concentration −7.0,1.081
same,Mean Optical Densities,[16]; Log10 Concentration −8.0,1.077
same,Mean Optical Densities,[17]; Log10 Concentration −4.0,0.890
same,Mean Optical Densities,[17]; Log10 Concentration −5.0,0.794
same,Mean Optical Densities,[17]; Log10 Concentration −6.0,1.785
same,Mean Optical Densities,[17]; Log10 Concentration −7.0,2.027
same,Mean Optical Densities,[17]; Log10 Concentration −8.0,1.911
same,Mean Optical Densities,[18]; Log10 Concentration −4.0,1.150
same,Mean Optical Densities,[18]; Log10 Concentration −5.0,1.380
same,Mean Optical Densities,[18]; Log10 Concentration −6.0,1.795
same,Mean Optical Densities,[18]; Log10 Concentration −7.0,1.902
same,Mean Optical Densities,[18]; Log10 Concentration −8.0,1.929
same,Mean Optical Densities,[19]; Log10 Concentration −4.0,0.647
same,Mean Optical Densities,[19]; Log10 Concentration −5.0,1.026
same,Mean Optical Densities,[19]; Log10 Concentration −6.0,1.352
same,Mean Optical Densities,[19]; Log10 Concentration −7.0,1.418
same,Mean Optical Densities,[19]; Log10 Concentration −8.0,1.422
same,Mean Optical Densities,[20]; Log10 Concentration −4.0,0.579
same,Mean Optical Densities,[20]; Log10 Concentration −5.0,0.805
same,Mean Optical Densities,[20]; Log10 Concentration −6.0,0.972
same,Mean Optical Densities,[20]; Log10 Concentration −7.0,1.002
same,Mean Optical Densities,[20]; Log10 Concentration −8.0,1.012
same,Mean Optical Densities,[21]; Log10 Concentration −4.0,0.357
same,Mean Optical Densities,[21]; Log10 Concentration −5.0,0.578
same,Mean Optical Densities,[21]; Log10 Concentration −6.0,0.802
same,Mean Optical Densities,[21]; Log10 Concentration −7.0,0.842
same,Mean Optical Densities,[21]; Log10 Concentration −8.0,0.821
same,Mean Optical Densities,[22]; Log10 Concentration −4.0,0.792
same,Mean Optical Densities,[22]; Log10 Concentration −5.0,0.917
same,Mean Optical Densities,[22]; Log10 Concentration −6.0,1.258
same,Mean Optical Densities,[22]; Log10 Concentration −7.0,1.288
same,Mean Optical Densities,[22]; Log10 Concentration −8.0,1.296
same,Mean Optical Densities,[23]; Log10 Concentration −4.0,0.875
same,Mean Optical Densities,[23]; Log10 Concentration −5.0,0.927
same,Mean Optical Densities,[23]; Log10 Concentration −6.0,1.812
same,Mean Optical Densities,[23]; Log10 Concentration −7.0,1.827
same,Mean Optical Densities,[23]; Log10 Concentration −8.0,1.868
same,Mean Optical Densities,[24]; Log10 Concentration −4.0,1.139
same,Mean Optical Densities,[24]; Log10 Concentration −5.0,1.361
same,Mean Optical Densities,[24]; Log10 Concentration −6.0,1.675
same,Mean Optical Densities,[24]; Log10 Concentration −7.0,1.717
same,Mean Optical Densities,[24]; Log10 Concentration −8.0,1.717
same,Mean Optical Densities,[25]; Log10 Concentration −4.0,1.418
same,Mean Optical Densities,[25]; Log10 Concentration −5.0,1.969
same,Mean Optical Densities,[25]; Log10 Concentration −6.0,2.473
same,Mean Optical Densities,[25]; Log10 Concentration −7.0,2.666
same,Mean Optical Densities,[25]; Log10 Concentration −8.0,2.580

# Like-named read-outs stand apart in the source and are kept apart here.
